These are yes or no findings as the source states them, for the method shown. In cells and extracts the contact can be indirect. Some results given as binding are weak or reduced against the parent protein; the word gives no strength.

Sequences of proteins named here, by UniProt entry; tags and fusion partners are left off. A change or cut given only in a name is not applied to a line headed by its entry. Residues count along the entry.
UniProt P42336, residues 127-314: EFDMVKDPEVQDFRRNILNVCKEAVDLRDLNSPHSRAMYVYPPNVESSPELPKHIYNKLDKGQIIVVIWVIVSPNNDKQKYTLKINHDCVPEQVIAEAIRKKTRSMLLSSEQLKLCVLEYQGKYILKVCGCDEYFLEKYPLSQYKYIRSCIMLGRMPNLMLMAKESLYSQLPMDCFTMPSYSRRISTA
UniProt Q13153: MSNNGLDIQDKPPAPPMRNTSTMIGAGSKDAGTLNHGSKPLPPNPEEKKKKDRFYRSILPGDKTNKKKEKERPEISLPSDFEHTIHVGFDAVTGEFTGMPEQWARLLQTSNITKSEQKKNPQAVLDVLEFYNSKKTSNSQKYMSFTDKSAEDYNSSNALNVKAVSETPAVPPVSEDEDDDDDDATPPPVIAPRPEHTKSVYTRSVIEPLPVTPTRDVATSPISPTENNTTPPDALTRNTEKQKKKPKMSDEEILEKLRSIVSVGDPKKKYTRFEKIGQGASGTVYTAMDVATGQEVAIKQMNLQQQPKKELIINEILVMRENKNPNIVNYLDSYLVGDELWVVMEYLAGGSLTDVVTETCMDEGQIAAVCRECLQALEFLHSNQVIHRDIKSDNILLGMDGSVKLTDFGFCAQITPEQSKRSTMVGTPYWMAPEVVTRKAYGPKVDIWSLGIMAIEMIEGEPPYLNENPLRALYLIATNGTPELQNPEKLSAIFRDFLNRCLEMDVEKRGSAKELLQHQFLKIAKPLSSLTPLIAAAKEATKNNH
GST-PAK[CRIB]: residues 58-141 of Q13153
UniProt Q9P212, residues 2130-2240: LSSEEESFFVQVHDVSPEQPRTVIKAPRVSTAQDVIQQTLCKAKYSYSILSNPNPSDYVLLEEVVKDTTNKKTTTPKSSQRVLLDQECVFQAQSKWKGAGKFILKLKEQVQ
UniProt P61586: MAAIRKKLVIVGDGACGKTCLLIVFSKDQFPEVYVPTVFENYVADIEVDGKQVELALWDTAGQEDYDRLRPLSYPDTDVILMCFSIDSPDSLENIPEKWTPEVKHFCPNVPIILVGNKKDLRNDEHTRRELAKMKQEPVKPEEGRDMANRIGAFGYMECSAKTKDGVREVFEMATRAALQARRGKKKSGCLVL
UniProt O96013: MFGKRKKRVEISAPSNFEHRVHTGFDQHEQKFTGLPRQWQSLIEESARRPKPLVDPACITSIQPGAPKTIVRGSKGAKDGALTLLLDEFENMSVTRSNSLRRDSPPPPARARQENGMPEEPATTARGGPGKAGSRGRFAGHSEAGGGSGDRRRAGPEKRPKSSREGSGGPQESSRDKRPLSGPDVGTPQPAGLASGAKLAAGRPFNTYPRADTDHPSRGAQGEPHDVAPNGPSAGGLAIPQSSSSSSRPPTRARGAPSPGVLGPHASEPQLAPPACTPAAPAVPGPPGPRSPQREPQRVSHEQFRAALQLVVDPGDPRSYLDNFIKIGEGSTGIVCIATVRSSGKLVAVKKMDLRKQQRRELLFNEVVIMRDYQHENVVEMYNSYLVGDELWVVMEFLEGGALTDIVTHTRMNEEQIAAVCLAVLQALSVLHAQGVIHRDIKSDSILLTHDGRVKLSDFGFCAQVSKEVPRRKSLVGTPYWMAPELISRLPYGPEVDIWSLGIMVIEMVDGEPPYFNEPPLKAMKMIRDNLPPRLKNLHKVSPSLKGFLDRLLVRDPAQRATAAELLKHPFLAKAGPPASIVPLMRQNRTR
UniProt P60953: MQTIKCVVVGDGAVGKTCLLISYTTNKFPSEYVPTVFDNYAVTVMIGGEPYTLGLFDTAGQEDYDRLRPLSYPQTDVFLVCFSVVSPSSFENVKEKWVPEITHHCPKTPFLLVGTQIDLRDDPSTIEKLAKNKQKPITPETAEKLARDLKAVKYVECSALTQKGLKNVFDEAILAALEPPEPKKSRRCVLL

The target of one experiment is GST-PIK3CA[RBD] (UniProt P42336). Description: pull-down; GST-RBD/RA/CRIB fusion proteins on beads precipitate HA-RIT1 from HEK293T cell extracts; cells in 0.1% serum, 10% serum, or 0.1% serum then 10 ng/ml EGF for 20 min; anti-HA immunoblot; only the target purified.
For the substance “HA-RIT1 wildtype (from UniProt Q92963-1 1-219)”, the binding entry was “binds”.

For the next experiment, the target named is GST-PAK[CRIB] (UniProt Q13153). The experiment is described as above.
As for “HA-RIT1 p.A57G (from UniProt Q92963-1 1-219)”, the binding entry was “binds”.

For the substance “HA-RIT1 p.F82L (from UniProt Q92963-1 1-219)”, the binding entry is recorded as “binds”.

On to “HA-RIT1 p.G31R (from UniProt Q92963-1 1-219)”, for which the binding entry is given as “binds”.

As to “HA-RIT1 p.G95A (from UniProt Q92963-1 1-219)”, the binding result is “binds”.

As to “HA-RIT1 p.K23N (from UniProt Q92963-1 1-219)”, the binding result is given as “binds”.

For “HA-RIT1 p.M90V (from UniProt Q92963-1 1-219)”, the binding result is “binds”.

Take “HA-RIT1 wildtype (from UniProt Q92963-1 1-219)”: the binding entry is given as “binds”.

The target in a further experiment is GST-PLCE1[RA] (UniProt Q9P212). The experiment is described as above.
Take “HA-RIT1 wildtype (from UniProt Q92963-1 1-219)”: the binding result is reported as “binds”.

The next experiment has as its target EGFP-RHOA (UniProt P61586). Description: co-IP; ectopically expressed MYC-, GFP- or EGFP-tagged bait precipitated from HEK293T lysates (0.1% serum) with anti-MYC beads, GFP trap or primary anti-CDC42/anti-RAC1 antibodies; immunoblot.
On to “HA-RIT1 p.G95A (from UniProt Q92963-1 1-219)”, for which the binding entry is on record as “no binding”.

As to “HA-RIT1 wildtype (from UniProt Q92963-1 1-219)”, the binding result is “no binding”.

The target in the next experiment is GFP-PAK4 (UniProt O96013). Described as above.
As for “HA-RIT1 p.G95A (from UniProt Q92963-1 1-219)”, the binding result was “no binding”.

Regarding “HA-RIT1 wildtype (from UniProt Q92963-1 1-219)”, the binding result was “no binding”.

In the case of “endogenous CDC42 (HEK293T) (from UniProt P60953 1-191)”, the binding result was “binds”.

A further experiment deals with MYC-CDC42 (UniProt P60953). The experiment is described as above.
With “HA-RIT1 p.G95A (from UniProt Q92963-1 1-219)”, the binding result is listed as “binds”.

In the case of “HA-RIT1 wildtype (from UniProt Q92963-1 1-219)”, the binding entry is recorded as “binds”.

The next experiment deals with endogenous CDC42 (HEK293T) (human (endogenous in HEK293T)) (UniProt P60953). Description: co-IP; endogenous PAK1, CDC42 or RAC1 immunoprecipitated (Protein A agarose or Protein G sepharose) from lysates of transfected HEK293T cells, 0.1% or 10% serum; 150 mM NaCl, 50 mM HEPES pH 7.5, 0.2% Nonidet P40 (S5B Fig: 50 mM Tris-HCl pH 8, 120 mM NaCl, 1 mM EDTA, 0.5% Nonidet P40); co-precipitated HA-RIT1 detected by anti-HA immunoblot. In general terms: In western blotting, separated proteins are transferred to a membrane and probed.
For the substance “HA-RIT1 p.A57G (from UniProt Q92963-1 1-219)”, the binding result is “binds”.

With “HA-RIT1 p.F82L (from UniProt Q92963-1 1-219)”, the binding entry is “binds”.

As for “HA-RIT1 p.G31R (from UniProt Q92963-1 1-219)”, the binding entry is on record as “binds”.

Consider “HA-RIT1 p.G95A (from UniProt Q92963-1 1-219)”, for which the binding entry is given as “binds”.

As for “HA-RIT1 p.K23N (from UniProt Q92963-1 1-219)”, the binding entry is reported as “binds”.

Consider “HA-RIT1 p.M90V (from UniProt Q92963-1 1-219)”, for which the binding entry is “binds”.

“HA-RIT1 wildtype (from UniProt Q92963-1 1-219)”: the binding result was “binds”.

For a further experiment, the target named is endogenous PAK1 (HEK293T) (human (endogenous in HEK293T)) (UniProt Q13153). Described as above.
Consider “HA-RIT1 p.F82L (from UniProt Q92963-1 1-219)”, for which the binding entry is on record as “binds”.

As to “HA-RIT1 p.G95A (from UniProt Q92963-1 1-219)”, the binding entry is “binds”.

With “HA-RIT1 p.M90V (from UniProt Q92963-1 1-219)”, the binding entry is given as “binds”.

“HA-RIT1 wildtype (from UniProt Q92963-1 1-219)”: the binding result is given as “binds”.

The next experiment has as its target endogenous CDC42 (HEK293T) (human (endogenous in HEK293T)) (UniProt P60953). Description: co-IP; anti-PAK1 or anti-CDC42 antibody on magnetic Dynabeads Protein G; mRIPA buffer (50 mM HEPES pH 7.5, 150 mM NaCl, 1% Nonidet P40, 0.5% sodium deoxycholate, 0.05% SDS, 1 mM EDTA); HEK293T (transient, 10% serum; S3B, S5A Figs) or Flp-In 293 (stable; S6D Fig) lysates; anti-HA immunoblot.
For the substance “HA-RIT1 p.A57G (from UniProt Q92963-1 1-219)”, the binding entry is on record as “binds”.

Regarding “HA-RIT1 p.F82L (from UniProt Q92963-1 1-219)”, the binding entry is on record as “binds”.

Consider “HA-RIT1 p.G31R (from UniProt Q92963-1 1-219)”, for which the binding result is “binds”.

“HA-RIT1 p.G95A (from UniProt Q92963-1 1-219)”: the binding result is recorded as “binds”.

On to “HA-RIT1 p.K23N (from UniProt Q92963-1 1-219)”, for which the binding entry is “binds”.

In the case of “HA-RIT1 p.M90V (from UniProt Q92963-1 1-219)”, the binding result is listed as “binds”.

Take “HA-RIT1 wildtype (from UniProt Q92963-1 1-219)”: the binding entry was “binds”.

The target of the next experiment is endogenous CDC42 (Flp-In 293) (human (endogenous in Flp-In 293)) (UniProt P60953). The description is as above.
As to “HA-tagged RIT1 p.A57G (Flp-In 293 stable cell line) (from UniProt Q92963-1 1-219)”, the binding result is given as “binds”.

With “HA-tagged RIT1 p.G31R (Flp-In 293 stable cell line) (from UniProt Q92963-1 1-219)”, the binding entry is recorded as “binds”.

In the next experiment the target is endogenous PAK1 (HEK293T) (human (endogenous in HEK293T)) (UniProt Q13153). The experiment is described as above.
Regarding “HA-RIT1 wildtype (from UniProt Q92963-1 1-219)”, the binding entry is on record as “binds”.

The values above are taken from article PMC5937737.
